This passage reports binding results from US20240148824A1.

Protein sequences, listed by entry. Tags and fused reporters are not part of them. Lines headed by an entry give the natural chain unless they say otherwise; changes in a name come on top.
UniProt Q12884: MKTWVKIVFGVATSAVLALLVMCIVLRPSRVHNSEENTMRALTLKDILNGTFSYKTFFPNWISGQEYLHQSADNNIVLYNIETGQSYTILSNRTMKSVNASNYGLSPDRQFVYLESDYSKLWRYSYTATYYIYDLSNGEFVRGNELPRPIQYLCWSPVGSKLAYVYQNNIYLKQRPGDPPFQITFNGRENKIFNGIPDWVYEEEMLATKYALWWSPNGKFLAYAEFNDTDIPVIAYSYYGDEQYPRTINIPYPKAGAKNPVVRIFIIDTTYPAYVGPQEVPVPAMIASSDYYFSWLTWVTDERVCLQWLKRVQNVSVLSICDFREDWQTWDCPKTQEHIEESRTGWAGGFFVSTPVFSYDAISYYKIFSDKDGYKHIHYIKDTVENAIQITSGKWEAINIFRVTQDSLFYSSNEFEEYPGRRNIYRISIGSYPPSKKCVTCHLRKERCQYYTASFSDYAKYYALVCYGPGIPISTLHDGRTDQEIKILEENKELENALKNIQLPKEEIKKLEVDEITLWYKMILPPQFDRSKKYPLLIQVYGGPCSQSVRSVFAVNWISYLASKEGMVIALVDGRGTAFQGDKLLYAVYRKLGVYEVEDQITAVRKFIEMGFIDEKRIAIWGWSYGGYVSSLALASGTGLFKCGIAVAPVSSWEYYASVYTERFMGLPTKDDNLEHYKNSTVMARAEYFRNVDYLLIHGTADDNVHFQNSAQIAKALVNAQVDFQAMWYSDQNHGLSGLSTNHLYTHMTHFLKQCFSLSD

This assay deals with recombinant His6-tagged extracellular domain of human FAP (human) (UniProt Q12884). Kind of assay: ELISA, crude periplasmic extracts on coated antigen. For orientation: In an ELISA, binding on a coated surface is turned into a signal by an enzyme label.

Changes are numbered by the printed parent chain. These are yes or no findings as the source states them, for the method shown. Some binding calls cover weakened binding; strength is not graded here.

B1: 2HFA20 (VHH)
VHH: QVQLQESGGGLVQAGGSLRLSCAVSGRLFSANTMGWYRQAPGKRRELVATILSSGSTNYADSVKGRFTISRDDAKNTVYLQMNSLKPEDTAVYYCNLAPPPEGYWGQGTQVTVSS
With B1, the binding result is “binds”.

B2: 2HFA5 (VHH)
VHH: B1 VHH with A74G, E88D, L97F
B2: the binding result is “binds”.
